Source: the supplement of paper PMC3334620
Over roughly 33,000 sequences, “E-score (-0.5 to 0.5)” has its median near -0.016; the highest 2% begin near 0.3. Some of the results follow.

Target: T1, Yer184c (UniProt P39961)
T1 sequence: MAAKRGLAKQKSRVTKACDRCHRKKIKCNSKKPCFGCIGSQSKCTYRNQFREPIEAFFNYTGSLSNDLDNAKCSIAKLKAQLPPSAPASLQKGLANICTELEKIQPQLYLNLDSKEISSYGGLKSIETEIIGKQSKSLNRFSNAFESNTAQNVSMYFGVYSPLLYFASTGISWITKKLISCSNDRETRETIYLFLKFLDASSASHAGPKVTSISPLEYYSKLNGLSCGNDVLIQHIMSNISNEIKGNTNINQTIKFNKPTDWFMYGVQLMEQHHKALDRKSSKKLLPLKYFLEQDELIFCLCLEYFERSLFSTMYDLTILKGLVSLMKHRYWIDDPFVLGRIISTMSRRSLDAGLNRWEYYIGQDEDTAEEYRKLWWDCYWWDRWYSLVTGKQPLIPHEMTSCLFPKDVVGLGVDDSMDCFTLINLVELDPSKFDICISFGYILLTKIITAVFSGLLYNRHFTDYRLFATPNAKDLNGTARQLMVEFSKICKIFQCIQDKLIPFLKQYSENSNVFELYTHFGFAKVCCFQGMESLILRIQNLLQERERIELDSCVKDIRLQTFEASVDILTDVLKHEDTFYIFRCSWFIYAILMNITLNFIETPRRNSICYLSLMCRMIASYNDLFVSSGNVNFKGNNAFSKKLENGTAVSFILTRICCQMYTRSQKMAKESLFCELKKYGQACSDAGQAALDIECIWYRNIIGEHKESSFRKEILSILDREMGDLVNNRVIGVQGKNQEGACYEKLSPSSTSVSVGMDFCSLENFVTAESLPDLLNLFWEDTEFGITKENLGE
Assay: PBM E-score (8-mer binding enrichment) (E-score (-0.5 to 0.5)); higher = stronger / more preferred TF binding
Settings: protein concentration: 100 nM; construct: GST-full length
How it was run: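 Universal all-10-mer Agilent arrays, double-stranded by primer extension on fresh or once-stripped slides, were probed with about 100-200 nM GST-tagged yeast transcription factors made by PURExpress. Fluorescent anti-GST detected bound protein, and masliner normalised the scans. E-scores from the Universal PBM Analysis Suite were given to each ungapped eight-base word pooled with its reverse complement.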

| Sequence | PBM E-score |
| --- | --- |
| AAGCACCC | -0.11 |
| AAATATGA | 0.0794 |
| ATCGAACG | -0.107 |
| ACCTACCT | -0.107 |
| ATGACGCC | -0.186 |
| ACATCTGC | -0.309 |
| GGTGTCGA | -0.132 |
| CTGAGGAC | -0.0618 |
| TACTTCCA | 0.00323 |
| ATCCACAC | -0.142 |
| AAGTGTCG | 0.0981 |
| CGTCGGTC | 0.115 |
| ACTAATCG | 0.122 |
| CGCGCTAG | 0.00944 |
| GAGCACGA | 0.0734 |
| GCCATACA | -0.0148 |
| GATGATCA | 0.0362 |
| AGCTAGAT | -0.104 |
| ATAGGAGA | -0.337 |
| GGCCGTAA | 0.189 |
| CCCCTTGA | -0.0387 |
| TAGGTTCA | 0.117 |
| GTTAGCTA | -0.119 |
| CCGGAATA | 0.339 |
| GTTAAGCA | 0.031 |

| Sequence | PBM E-score |
| --- | --- |
| GCAGACAC | 0.0863 |
| ATCAAATG | 0.15 |
| AGAATGCA | 0.0885 |
| CGGCATGC | 0.272 |
| ACTAGGGG | -0.256 |
| TGCCTACA | -0.0126 |
| GCGGGGAC | -0.0805 |
| GTGGTTAA | 0.0141 |
| CGTCGTGC | 0.078 |
| AGGTATAA | 0.0783 |
| AATGTAAA | 0.131 |
| CCTGGTCA | -0.308 |
| AGATCGTG | -0.18 |
| AAGGCCCA | -0.266 |
| CACGCATG | -0.0511 |
| AATCATCT | -0.0795 |
| CTATACGA | 0.00809 |
| CACGGCGG | 0.00982 |
| ACCTATCA | -0.101 |
| AAGATAAG | 0.0357 |
| ACCTAGTA | -0.242 |
| TTCTGCAA | 0.128 |
| ATATGCTC | 0.00244 |
| ATACGCAT | 0.0347 |
| AAGCAGGA | 0.0757 |

| Sequence | PBM E-score |
| --- | --- |
| CCATATGG | -0.118 |
| GGCCTTAA | 0.0628 |
| TCTGCCAA | -0.017 |
| GGGCTGTA | -0.205 |
| TACCGGTA | 0.23 |
| AGACGATA | 0.0566 |
| AATGCGGA | 0.173 |
| AACCAAGT | 0.014 |
| CTGAGTCA | -0.161 |
| ATGTGACC | -0.109 |
| ATGAGAGA | 0.0607 |
| CCCCCAGC | -0.259 |
| CATACCGA | 0.0789 |
| AGACCTGC | -0.23 |
| AACCGAAA | 0.345 |
| AAGACTTA | 0.0327 |
| AGTCTGCC | -0.0262 |
| CGACTGGA | -0.0689 |
| GGTCCCAA | -0.218 |
| CTCGACTC | -0.158 |
| ATGGTAAG | -0.11 |
| GAAATTCC | 0.0108 |
| ACCTACAA | 0.0682 |
| ACAGGTAC | -0.19 |
| TATCAGGA | 0.182 |

| Sequence | PBM E-score |
| --- | --- |
| CAAACATC | 0.202 |
| AACGCGCC | 0.0479 |
| AAATAGTT | 0.153 |
| GCGGACGC | -0.106 |
| CCCATTGC | -0.119 |
| GGATGGAC | -0.0483 |
| CATTCTGA | 0.104 |
| ACAGTTCA | 0.153 |
| ATCACTGC | 0.106 |
| CGCCTCCA | -0.0793 |
| TCACTGGA | -0.0932 |
| GAACGATC | 0.0882 |
| CCTCCCGA | 0.046 |
| CTACCCGC | -0.011 |
| GTCTGTAA | 0.0917 |
| CACCCTAA | -0.135 |
| GCGCTCAA | -0.0579 |
| GGCCCAAC | -0.0823 |
| GCTCTGAC | -0.11 |
| ACCACATG | -0.0788 |
| CCGGAACA | 0.435 |
| TAAATGAA | 0.00284 |
| ACTTAGGC | -0.0534 |
| ACCCCGTC | -0.184 |
| CTGCCAAC | -0.046 |

| Sequence | PBM E-score |
| --- | --- |
| AGTTAAAC | -0.0413 |
| AACCATGC | 0.0582 |
| AAAGTCAA | 0.0734 |
| ACGGCCAG | 0.0144 |
| AAATCAAT | 0.137 |
| AGGGTTAC | -0.328 |
| CGGCCCCG | 0.0672 |
| CTATCTAA | -0.0743 |
| GCAGGCAA | 0.066 |
| AGTCCAGG | -0.206 |
| CGATGCAC | -0.135 |
| AACAAGAT | 0.151 |
| CAACCGCG | 0.306 |
| GATCACAC | -0.0414 |
| CGGTTCCA | 0.123 |
| GCTGTCAC | -0.154 |
| AGGGTTTC | -0.118 |
| CACTCTAG | -0.0442 |
| CCCGGAGG | 0.0124 |
| AGAACGGG | -0.0299 |
| CTGAAAAA | 0.0158 |
| CCTTATTC | -0.0768 |
| ACACCGCC | -0.0396 |
| ACAACGTA | -0.00276 |
| ACCTGCAC | -0.157 |

| Sequence | PBM E-score |
| --- | --- |
| CATATCGC | -0.0129 |
| GGGGGAAC | -0.34 |
| GAAATTGC | 0.031 |
| GGTTACAC | -0.101 |
| AAACCACG | -0.01 |
| CCCGAGAC | 0.0787 |
| CGCTAAGC | 0.0776 |
| AGGACTGA | -0.0956 |
| AGTCATTA | -0.17 |
| ACAGAGAC | -0.105 |
| ACACTCGC | 0.0547 |
| CGGTGGTA | -0.0143 |
| GTAGGTCA | -0.294 |
| GAGTTGGA | -0.0447 |
| GACATCCA | -0.177 |
| GCCAATCA | -0.24 |
| GAGGCAGC | -0.201 |
| GGATCTCA | -0.0215 |
| CGTGATAC | -0.184 |
| AATGCGGC | 0.0994 |
| GTATGGGA | -0.214 |
| ATTTGACG | 0.0483 |
| CCTCCCTC | -0.0488 |
| GCAACTCC | 0.0666 |
| GAACCCAA | -0.0482 |

Quoted from the listing for reference:

| Sequence | PBM E-score |
| --- | --- |
| CCATATGG | -0.118 |
| GGCCTTAA | 0.0628 |
| TCTGCCAA | -0.017 |
| GGGCTGTA | -0.205 |
| TACCGGTA | 0.23 |
| AGACGATA | 0.0566 |
| AATGCGGA | 0.173 |
| AACCAAGT | 0.014 |
| CTGAGTCA | -0.161 |
| ATGTGACC | -0.109 |
| ATGAGAGA | 0.0607 |
| CCCCCAGC | -0.259 |
| CATACCGA | 0.0789 |
| AGACCTGC | -0.23 |
| AACCGAAA | 0.345 |
| AAGACTTA | 0.0327 |
| AGTCTGCC | -0.0262 |
| CGACTGGA | -0.0689 |
| GGTCCCAA | -0.218 |
| CTCGACTC | -0.158 |
| ATGGTAAG | -0.11 |
| GAAATTCC | 0.0108 |
| ACCTACAA | 0.0682 |
| ACAGGTAC | -0.19 |
| TATCAGGA | 0.182 |
| CAAACATC | 0.202 |
| AACGCGCC | 0.0479 |
| AAATAGTT | 0.153 |
| GCGGACGC | -0.106 |
| CCCATTGC | -0.119 |
| GGATGGAC | -0.0483 |
| CATTCTGA | 0.104 |
| ACAGTTCA | 0.153 |
| ATCACTGC | 0.106 |
| CGCCTCCA | -0.0793 |
| TCACTGGA | -0.0932 |
| GAACGATC | 0.0882 |
| CCTCCCGA | 0.046 |
| CTACCCGC | -0.011 |
| GTCTGTAA | 0.0917 |
| CACCCTAA | -0.135 |
| GCGCTCAA | -0.0579 |
| GGCCCAAC | -0.0823 |
| GCTCTGAC | -0.11 |
| ACCACATG | -0.0788 |
| CCGGAACA | 0.435 |
| TAAATGAA | 0.00284 |
| ACTTAGGC | -0.0534 |
| ACCCCGTC | -0.184 |

The listing continues.

| Sequence | PBM E-score |
| --- | --- |
| ATCAGATG | -0.0466 |
| AACGGGAT | 0.102 |
| CTACGCCC | -0.188 |
| CTATAAAC | 0.159 |
| TAGTTCGA | 0.00019 |
| AGTAGGGC | -0.0259 |
| CCACCAGG | -0.199 |
| ACCCTTTG | -0.174 |
| CGTTTTAC | 0.111 |
| CAAAGTCG | -0.116 |
| AGTGGTAG | -0.245 |
| ATTGTGCC | -0.051 |
| GCGCGAAC | 0.146 |
| ATGGTAGG | -0.184 |
| CTAGATTA | 0.113 |
| CAGTACGA | 0.139 |
| TCCAACGA | -0.117 |
| ACCGAAAC | 0.264 |
| CTTAGGGC | -0.0132 |
| AGGTCACC | -0.0933 |
| CAATGTAG | -0.0569 |
| GACGTAGA | -0.335 |
